Results published in patent publication US6197752A, “Glycomimetics as selectin antagonists and pharmaceuticals having antiinflammatory activity prepared therefrom” (Glycorex AB, priority 1995, dated 2001).

Test system: leukocyte adhesion on the endothelium
Test: LPS-induced leukocyte adhesion in vivo, intravital microscopy in the mesenterium of the rat
Settings: SPRD (m)
Description: In inflammatory processes and other states which activate the cytokines, a critical part is played by the destruction of tissue by means of leukocytes which migrate in or which block the microcirculation. The first phase, which is critical for the subsequent course of the disease, is the activation of leukocytes within the blood stream, especially in the pre- and post-capillary area. […] All subsequent leukocyte effects, i.e. active migration through the vessel wall and subsequent oriented migration in the tissue, are secondary reactions (Harlan, J. M., Leukocyte-endothelial interaction, Blood 65, 513-525,1985).
This receptor-mediated interaction of leukocytes and endothelial cells is regarded as an initial sign of the inflammation process. In addition to the merely physiologically expressed adhesion molecules, under the action of inflammation mediators (leukotrienes, PAF) and cytokines (TNF-alpha, interleukins) there is massive, chronologically graduated expression of adhesion molecules on the cells. They are currently subdivided into three groups: 1. immunoglobulin gene superfamily, 2. integrins and 3. selectins. Whereas adhesion between molecules of the Ig gene superfamily takes place by way of protein-protein bonds, in the case of cooperation between selectins it is lectin-carbohydrate bonds which are principally involved (Springer, T. A., Adhesion receptors of the immune system. Nature 346, 425-434, 1990; Huges, G., Cell adhesion molecules--the key to a universal panacea, Scrips Magazine 6, 30-33,1993; Springer, T. A., Traffic signals for lymphocyte recirculation and leukocyte emigration; The multistep paradigm. Cell 76, 301-314,1994).
The induced adhesion of leukocytes is quantified by an investigation technique involving intravital microscopy in the mesenterium of the rat (Atherton A. and Born G.V.R., Quantitative investigations of the adhesiveness of circulating polymorphonuclear leukocytes to blood vessel walls. J. Physiol. 222, 447-474,1972; Seiffge, D. Methoden zur Untersuchung der Rezeptor-vermittelten Interaktion zwischen Leukozyten und Endotheizellen im Entzundungsgeschehen [Methods of investigating receptor-mediated interaction between leukocytes and endothelial cells in the case of inflammation] in: Ersatz- und Erganzungsmethoden zu Tierversuchen in der biomedizinischen Forschung, Schoffl, H. et al., (eds.) Springer, 1995 (in press)). Under ether-inhalation anesthesia, long-term anesthesia is induced by intramuscular injection of urethane (1.25 mg/kg BW). […] The resulting increased adhesion of leukocytes on the endothelium is quantified directly by vital microscopy or with the aid of fluorescent dyes. All measurement operations are recorded by video camera and stored on a video recorder.

C[C@@H]1O[C@@H](CCCOC(=O)N2CCC(C(=O)O)CC2)[C@@H](O)[C@H](O)[C@@H]1O [Compound 12c]
fibrinogen (3 mg/kg, 1 day i.v.): 109 mg/100 mL | leukocytes (3 mg/kg, 1 day i.v.): 8.7 +/- 0.9 10^3/mm^3 | fibrinogen (20 mg/kg, 1 day p.o.): 137 +/- 10.0 mg/100 mL | leukocytes (20 mg/kg, 1 day p.o.): 7.6 10^3/mm^3
